# Measurements taken from the supplement of paper PMC12872613.
# Where a name gives a salt, the structure may show the parent alone. The list shows a part of the results. Rule as the data show it: active = 0.7 or more and inactive = the rest. Repeats are few or missing, and single values can be far off.
# Test system: MiaPaCa-2 CLSA-25
# Assay: cell death relative to DMSO vehicle (fraction); higher = more cytotoxic
# Details: 5 µM; treatment time 48 h; medium cystine 25 µM
row,Compound,cell death
1,CC(C)c1nc(N(C)S(C)(=O)=O)nc(-c2ccc(F)cc2)c1/C=C/[C@@H](O)C[C@@H](O)CC(=O)O [Rosuvastatin],inactive: 0.168
2,CSc1ccc(C(=O)/C=C/c2cc(C)c(OC(C)(C)C(=O)O)c(C)c2)cc1 [Elafibranor],inactive: 0.411
3,Cc1nc2ccc(NC(=O)Nc3ccnc4cccnc34)cc2o1,inactive: 0.139
4,CC(O)Cn1cnc2c1c(=O)n(C)c(=O)n2C (stereo not drawn) [Proxyphylline],inactive: 0.0984
5,c1ccc([C@H]2CN3CCSC3=N2)cc1 [Levamisole hydrochloride],inactive: 0.118
6,O=C[C@H](O)[C@@H](O)[C@H](O)CO (racemic) [DL-Xylose],inactive: 0.049
7,Cc1ccc(S(=O)(=O)Cc2nc(-c3ccc(C(=O)NCc4cccnc4)cc3)oc2C)cc1,active: 0.727
8,O=C(Nc1c(Cl)cncc1Cl)c1ccc(OC(F)F)c(OCC2CC2)c1 [Roflumilast],active: 0.844
9,COc1ccc2c(c1)[nH]c1c(C)nccc12 [Harmine],inactive: 0.324
10,Oc1ccc(CC2NCCc3cc(O)c(O)cc32)cc1 (stereo not drawn) [Higenamine Hydrochloride],inactive: 0.653
11,CC(C)CN(C[C@@H](O)[C@H](Cc1ccccc1)NC(=O)O[C@H]1CCOC1)S(=O)(=O)c1ccc(N)cc1 [Amprenavir],inactive: 0.052
12,O=C1NCC2(CCN(CCc3ccccc3)CC2)O1 [Fenspiride hydrochloride],inactive: -0.0367
13,CC(C)NNC(=O)c1ccncc1 [Iproniazid Phosphate],inactive: -0.00348

# Nos. 10 to 11 of the list above:
row,Compound,cell death
10,Oc1ccc(CC2NCCc3cc(O)c(O)cc32)cc1 (stereo not drawn) [Higenamine Hydrochloride],inactive: 0.653
11,CC(C)CN(C[C@@H](O)[C@H](Cc1ccccc1)NC(=O)O[C@H]1CCOC1)S(=O)(=O)c1ccc(N)cc1 [Amprenavir],inactive: 0.052
